# According to the supplement of paper PMC8728848:
# The other results are listed elsewhere or left out.
# B1: Epa8 (Candida glabrata) (protein)
# chain: MGSSHHHHHHSSGLVPRGSHMASSRALSDYPLGCSPLLGTKLTPGLSMELYEYPLDNHGIGPHCWDPAYLNPEYPRTGFESHKLIGTAQNVMSLNFEHRTQDCHVEFSNLPASFNFPDQITLTNFTMLLYGYFKPKESGRYRFHMEADDLLLMNLGAGNAFDCCAHEATRNNLGDYIAYDIWAGTRKDVEVFLEKEVFYPLRLFFNNRDGRAALDFSYYLNGATEPGTDIPELLFSLPDGESCPAYI
# Tests used:
# Test in all cases: glycan array binding signal (z-score within array); higher = stronger binding
# Settings in all cases: glycan notation: IUPAC condensed, linker removed
# [1] = target: Gal(b1-4)GlcNAc(b1-6)Gal(b1-4)GlcNAc
# Procedure, shortened: (§1)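 Negative Z-scores can be read as non-binding. The Z-score is calculated within each array and then averaged across arrays of one protein sequence at different concentrations or buffers and across linkers. Arrays, 3228 in all, were curated from the Consortium for Functional Glycomics database and kept only where the protein sequence was available.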
# [2] = target: Gal(b1-4)GlcNAc(b1-6)GalNAc
# Procedure, shortened: as §1
# [3] = target: Gal(b1-4)GlcNAc(b1-6)[Gal(b1-3)]GalNAc
# Procedure, shortened: as §1
# [4] = target: Gal(b1-4)GlcNAc(b1-6)[Gal(b1-4)GlcNAc(b1-3)]GalNAc
# Procedure, shortened: as §1
# Gal(b1-4)GlcNAc6P = target: Gal(b1-4)GlcNAc6P
# Procedure, shortened: as §1
# Gal(b1-6)Gal = target: Gal(b1-6)Gal
# Procedure, shortened: as §1
# Gal3S(b1-3)GalNAc = target: Gal3S(b1-3)GalNAc
# Procedure, shortened: as §1
# Gal3S(b1-3)GlcNAc = target: Gal3S(b1-3)GlcNAc
# Procedure, shortened: as §1
# [5] = target: Gal3S(b1-3)[Fuc(a1-4)]GlcNAc
# Procedure, shortened: as §1
# Gal3S(b1-4)Glc = target: Gal3S(b1-4)Glc
# Procedure, shortened: as §1
# Gal3S(b1-4)Glc6S = target: Gal3S(b1-4)Glc6S
# Procedure, shortened: as §1
# Gal3S(b1-4)GlcNAc = target: Gal3S(b1-4)GlcNAc
# Procedure, shortened: as §1
# [6] = target: Gal3S(b1-4)[Fuc(a1-3)]Glc6S
# Procedure, shortened: as §1
# [7] = target: Gal3S(b1-4)[Fuc(a1-3)]GlcNAc
# Procedure, shortened: as §1
# [8] = target: Gal3S(b1-4)[Fuc(a1-3)]GlcNAc6S
# Procedure, shortened: as §1
# Gal3S4S(b1-4)GlcNAc = target: Gal3S4S(b1-4)GlcNAc
# Procedure, shortened: as §1
# Gal3S6S(b1-4)GlcNAc = target: Gal3S6S(b1-4)GlcNAc
# Procedure, shortened: as §1
# Gal3S6S(b1-4)GlcNAc6S = target: Gal3S6S(b1-4)GlcNAc6S
# Procedure, shortened: as §1
# Gal4S(b1-4)GlcNAc = target: Gal4S(b1-4)GlcNAc
# Procedure, shortened: as §1
# Gal4S6S(b1-4)GlcNAc = target: Gal4S6S(b1-4)GlcNAc
# Procedure, shortened: as §1
# Gal6P(b1-4)GlcNAc = target: Gal6P(b1-4)GlcNAc
# Procedure, shortened: as §1
# Gal6S(b1-3)GlcNAc = target: Gal6S(b1-3)GlcNAc
# Procedure, shortened: as §1
# Gal6S(b1-3)GlcNAc6S = target: Gal6S(b1-3)GlcNAc6S
# Procedure, shortened: as §1
# Gal6S(b1-4)Glc = target: Gal6S(b1-4)Glc
# Procedure, shortened: as §1
# Gal6S(b1-4)Glc6S = target: Gal6S(b1-4)Glc6S
# Procedure, shortened: as §1
# Gal6S(b1-4)GlcNAc = target: Gal6S(b1-4)GlcNAc
# Procedure, shortened: as §1
# Gal6S(b1-4)GlcNAc6S = target: Gal6S(b1-4)GlcNAc6S
# Procedure, shortened: as §1
# GalNAc(a1-3)Gal = target: GalNAc(a1-3)Gal
# Procedure, shortened: as §1
# GalNAc(a1-3)GalNAc = target: GalNAc(a1-3)GalNAc
# Procedure, shortened: as §1
# [9] = target: GalNAc(a1-3)GalNAc(b1-3)Gal(a1-4)Gal(b1-4)Glc
# Procedure, shortened: as §1
# [10] = target: GalNAc(a1-3)GalNAc(b1-3)Gal(a1-4)Gal(b1-4)GlcNAc
# Procedure, shortened: as §1
# GalNAc(b1-3)Gal = target: GalNAc(b1-3)Gal
# Procedure, shortened: as §1
# [11] = target: GalNAc(b1-3)Gal(a1-4)Gal(b1-4)GlcNAc
# Procedure, shortened: as §1
# [12] = target: GalNAc(b1-3)Gal(a1-4)Gal(b1-4)GlcNAc(b1-3)Gal(b1-4)Glc
# Procedure, shortened: as §1
# [13] = target: GalNAc(b1-3)Gal(a1-6)Gal(b1-4)Glc
# Procedure, shortened: as §1
# GalNAc(b1-3)GalNAc = target: GalNAc(b1-3)GalNAc
# Procedure, shortened: as §1
# GalNAc(b1-3)GlcNAc = target: GalNAc(b1-3)GlcNAc
# Procedure, shortened: as §1
# GalNAc(b1-4)Gal(b1-4)Glc = target: GalNAc(b1-4)Gal(b1-4)Glc
# Procedure, shortened: as §1
binder,measurement,setting,value
B1,glycan array binding signal (z-score),[1],-0.084
same,glycan array binding signal (z-score),[2],0.443
same,glycan array binding signal (z-score),[3],0.343
same,glycan array binding signal (z-score),[4],-0.35
same,glycan array binding signal (z-score),Gal(b1-4)GlcNAc6P,-0.026
same,glycan array binding signal (z-score),Gal(b1-6)Gal,-1.7
same,glycan array binding signal (z-score),Gal3S(b1-3)GalNAc,0.161
same,glycan array binding signal (z-score),Gal3S(b1-3)GlcNAc,-0.119
same,glycan array binding signal (z-score),[5],0.899
same,glycan array binding signal (z-score),Gal3S(b1-4)Glc,-0.058
same,glycan array binding signal (z-score),Gal3S(b1-4)Glc6S,0.684
same,glycan array binding signal (z-score),Gal3S(b1-4)GlcNAc,-0.968
same,glycan array binding signal (z-score),[6],1.36
same,glycan array binding signal (z-score),[7],0.067
same,glycan array binding signal (z-score),[8],0.622
same,glycan array binding signal (z-score),Gal3S4S(b1-4)GlcNAc,-1.32
same,glycan array binding signal (z-score),Gal3S6S(b1-4)GlcNAc,-0.028
same,glycan array binding signal (z-score),Gal3S6S(b1-4)GlcNAc6S,0.968
same,glycan array binding signal (z-score),Gal4S(b1-4)GlcNAc,-1.81
same,glycan array binding signal (z-score),Gal4S6S(b1-4)GlcNAc,0.342
same,glycan array binding signal (z-score),Gal6P(b1-4)GlcNAc,-0.02
same,glycan array binding signal (z-score),Gal6S(b1-3)GlcNAc,-0.036
same,glycan array binding signal (z-score),Gal6S(b1-3)GlcNAc6S,1.85
same,glycan array binding signal (z-score),Gal6S(b1-4)Glc,0.199
same,glycan array binding signal (z-score),Gal6S(b1-4)Glc6S,1.14
same,glycan array binding signal (z-score),Gal6S(b1-4)GlcNAc,-0.007
same,glycan array binding signal (z-score),Gal6S(b1-4)GlcNAc6S,1.56
same,glycan array binding signal (z-score),GalNAc(a1-3)Gal,-0.335
same,glycan array binding signal (z-score),GalNAc(a1-3)GalNAc,-0.2
same,glycan array binding signal (z-score),[9],-0.455
same,glycan array binding signal (z-score),[10],-0.311
same,glycan array binding signal (z-score),GalNAc(b1-3)Gal,-0.001
same,glycan array binding signal (z-score),[11],-0.467
same,glycan array binding signal (z-score),[12],0.147
same,glycan array binding signal (z-score),[13],-0.488
same,glycan array binding signal (z-score),GalNAc(b1-3)GalNAc,-0.308
same,glycan array binding signal (z-score),GalNAc(b1-3)GlcNAc,-0.119
same,glycan array binding signal (z-score),GalNAc(b1-4)Gal(b1-4)Glc,0.191

# A different layout for part of the listing above.
binder	measurement	setting	value
B1	glycan array binding signal (z-score)	Gal4S(b1-4)GlcNAc	-1.81
same	glycan array binding signal (z-score)	Gal4S6S(b1-4)GlcNAc	0.342
